The exact form of at least one protein or probe is not confirmed. No signal at the amounts used counts as a negative. The comparison behind a weaker result is the experiment's own reference, which may not be listed here.
system: OxyR (Streptomyces gilvosporeus F607); assay: EMSA; details: EMSA: 20 mM Tris pH 7.5, 60 mM KCl, 2 mM EDTA, 0.5 mM DTT, 4% Ficoll, 1 ug poly(dI-dC), 20 uL, 15-25 C, 30 min; recombinant protein; protein details: His6 (pET-15b); label: * at 5' end (biotin)

| Sequence | binding result |
| --- | --- |
| ACCGCCCTTGCGGATGTTTGGTCGAGCCACTGGTCATTCCTTGCCGTCGCCTGCCGTCGTGTTCCGGACCCCTTGTCGGAATC (double strand) [psgnMR-2-M5] | binds more weakly |
| ACCGCCCTTGCGGGGTCCTGGTCGAGCCACTGGTACTTCCTTGCCGTCGCCTGCCGTCGTGTTCCGGACCCCTTGTCGGAATC (double strand) [psgnMR-2-M1] | binds more weakly |
| ACCGCCCTTGCGGATGTTTGGTCGAGCCACTGGTCATTCCTTGCCGTCGCCTCAAGTCGTGTTCCTCGCACCTTGTCGGAATC (double strand) [psgnMR-2-M6] | no binding |
| ACCGCCCTTGCGGATGTTTGGTCGAGCCACTGGCGGCTCCTTGCCGTCGCCTGCCGTCGTGTTCCGGACCCCTTGTCGGAATC (double strand) [psgnMR-2-M3] | binds more weakly |
| ACCGCCCTTGCGGGGTCCTGGTCGAGCCACTGGCGGCTCCTTGCCGTCGCCTGCCGTCGTGTTCCGGACCCCTTGTCGGAATC (double strand) [psgnMR-2 wild-type oligo probe] | binds |
| ACCGCCCTTGCGGATGTTTGGTCGAGCCACTGGTCATTCCTTGCCGTCGCCTCAAGTCGTGTTCCGGACCCCTTGTCGGAATC (double strand) [psgnMR-2-M7] | binds more weakly |
| ACCGCCCTTGCGGGGTCCTGGTCGAGCCACTGGTACTTCCTTGCCGTCGCCTCAGCTCGTGTTCCGGACCCCTTGTCGGAATC (double strand) [psgnMR-2-M2] | binds more weakly |
| ACCGCCCTTGCGGATGTTTGGTCGAGCCACTGGCGGCTCCTTGCCGTCGCCTGCCGTCGTGTTCCTCGCACCTTGTCGGAATC (double strand) [psgnMR-2-M4] | no binding |

— publication PMC10580950
